# Measurements from article PMC6370856, “Peptidyl prolyl cis/trans isomerase activity on the cell surface correlates with extracellular matrix development” (Communications Biology, 2019).
# System: collagen hydrogel (Type I, rat-tail)
# Assay: Step-strain rheological measurement, self-healing of collagen hydrogel
# Conditions: 9 micromolar CypA
# Procedure: Another important feature of the dynamic ECMs is their self-healing property, which can be tested using a step-strain rheological measurement. A strong strain is applied to liquify the materials, and the recovery of storage modulus is followed (self-healing) (Fig. 1b). Collagen hydrogel can only partially recover its storage modulus after the first cycle. The rate and extent of recovery were unchanged over the following cycles.
# To minimize sample evaporation at 37 °C, a tissue paper wet in HEPEs buffer (10 mM, pH 7.8) was placed inside the H-PTD chamber to increase the humidity. […] The cone and plate were treated with plasma for 5 min to increase the hydrophilicity of the metal surface.
substance,measurement,setting,value
"CypA: recombinant cyclophilin A, a PPIase, expressed in E. coli","Storage Modulus, Mean",Time 0.5 min,15.8208 Pa
same,"Storage Modulus, Mean",Time 1 min,15.8171 Pa
same,"Storage Modulus, Mean",Time 2 min,15.8368 Pa
same,"Storage Modulus, Mean",Time 2.5 min,16.0989 Pa
same,"Storage Modulus, Mean",Time 3 min,16.9639 Pa
same,"Storage Modulus, Mean",Time 3.5 min,16.2233 Pa
same,"Storage Modulus, Mean",Time 4 min,16.0579 Pa
same,"Storage Modulus, Mean",Time 4.5 min,16.7853 Pa
same,"Storage Modulus, Mean",Time 5 min,16.3104 Pa
same,"Storage Modulus, Mean",Time 6 min,16.724 Pa
same,"Storage Modulus, Mean",Time 6.5 min,16.2024 Pa
same,"Storage Modulus, Mean",Time 7 min,16.3448 Pa
same,"Storage Modulus, Mean",Time 7.5 min,15.9378 Pa
same,"Storage Modulus, Mean",Time 8 min,15.9026 Pa
same,"Storage Modulus, Mean",Time 8.5 min,16.142 Pa
same,"Storage Modulus, Mean",Time 9 min,16.5007 Pa
same,"Storage Modulus, Mean",Time 9.5 min,15.7601 Pa
same,"Storage Modulus, Mean",Time 10 min,16.2878 Pa
same,"Storage Modulus, Mean",Time 11 min,16.414 Pa
same,"Storage Modulus, Mean",Time 12 min,16.3967 Pa
same,"Storage Modulus, Mean",Time 12.5 min,15.8247 Pa
same,"Storage Modulus, Mean",Time 13 min,16.2827 Pa
same,"Storage Modulus, Mean",Time 14 min,16.0204 Pa
same,"Storage Modulus, Mean",Time 15 min,15.8554 Pa
same,"Storage Modulus, Mean",Time 15.5 min,16.1419 Pa
same,"Storage Modulus, Mean",Time 16 min,15.41 Pa
same,"Storage Modulus, Mean",Time 16.5 min,15.9689 Pa
same,"Storage Modulus, Mean",Time 17 min,15.5457 Pa
same,"Storage Modulus, Mean",Time 17.5 min,16.4414 Pa
same,"Storage Modulus, Mean",Time 18 min,16.5892 Pa
same,"Storage Modulus, Mean",Time 18.5 min,16.3366 Pa
same,"Storage Modulus, Mean",Time 19 min,16.287 Pa
same,"Storage Modulus, Mean",Time 19.5 min,16.3668 Pa
same,"Storage Modulus, Mean",Time 20 min,16.8513 Pa
same,"Storage Modulus, Mean",Time 20.5 min,15.8908 Pa
same,"Storage Modulus, Mean",Time 21 min,16.4657 Pa
same,"Storage Modulus, Mean",Time 22 min,16.3069 Pa
same,"Storage Modulus, Mean",Time 22.5 min,16.1892 Pa
same,"Storage Modulus, Mean",Time 23 min,16.1259 Pa
same,"Storage Modulus, Mean",Time 23.5 min,15.8073 Pa
same,"Storage Modulus, Mean",Time 24 min,16.0524 Pa
same,"Storage Modulus, Mean",Time 24.5 min,16.266 Pa
same,"Storage Modulus, Mean",Time 25 min,16.0275 Pa
same,"Storage Modulus, Mean",Time 25.5 min,16.6294 Pa
same,"Storage Modulus, Mean",Time 26 min,16.1748 Pa
same,"Storage Modulus, Mean",Time 26.5 min,16.2368 Pa
same,"Storage Modulus, Mean",Time 27 min,15.9059 Pa
same,"Storage Modulus, Mean",Time 27.5 min,16.5214 Pa
same,"Storage Modulus, Mean",Time 28 min,16.7548 Pa
same,"Storage Modulus, Mean",Time 28.5 min,16.4739 Pa
same,"Storage Modulus, Mean",Time 29 min,16.2691 Pa
same,"Storage Modulus, Mean",Time 29.5 min,16.3279 Pa
same,"Storage Modulus, Mean",Time 30 min,16.2533 Pa
same,"Storage Modulus, Mean",Time 30.167 min,1.444 Pa
same,"Storage Modulus, Mean",Time 30.333 min,1.239 Pa
same,"Storage Modulus, Mean",Time 30.5 min,1.099 Pa
same,"Storage Modulus, Mean",Time 30.667 min,1.033 Pa
same,"Storage Modulus, Mean",Time 30.833 min,0.9888 Pa
same,"Storage Modulus, Mean",Time 31 min,0.9512 Pa
same,"Storage Modulus, Mean",Time 31.167 min,0.9204 Pa
same,"Storage Modulus, Mean",Time 31.333 min,0.8959 Pa
same,"Storage Modulus, Mean",Time 31.5 min,0.8733 Pa
same,"Storage Modulus, Mean",Time 31.667 min,0.854 Pa
same,"Storage Modulus, Mean",Time 32.167 min,3.488 Pa
same,"Storage Modulus, Mean",Time 32.667 min,4.741 Pa
same,"Storage Modulus, Mean",Time 33.167 min,5.134 Pa
same,"Storage Modulus, Mean",Time 33.667 min,4.579 Pa
same,"Storage Modulus, Mean",Time 34.167 min,4.88 Pa
same,"Storage Modulus, Mean",Time 34.667 min,5.921 Pa
same,"Storage Modulus, Mean",Time 35.167 min,5.466 Pa
same,"Storage Modulus, Mean",Time 35.667 min,5.258 Pa
same,"Storage Modulus, Mean",Time 36.167 min,5.593 Pa
same,"Storage Modulus, Mean",Time 36.667 min,5.387 Pa
same,"Storage Modulus, Mean",Time 37.167 min,5.773 Pa
same,"Storage Modulus, Mean",Time 37.667 min,5.997 Pa
same,"Storage Modulus, Mean",Time 38.167 min,5.482 Pa
same,"Storage Modulus, Mean",Time 38.667 min,5.375 Pa
same,"Storage Modulus, Mean",Time 39.167 min,5.844 Pa
same,"Storage Modulus, Mean",Time 39.667 min,5.739 Pa
same,"Storage Modulus, Mean",Time 40.167 min,5.438 Pa
same,"Storage Modulus, Mean",Time 40.667 min,5.765 Pa
same,"Storage Modulus, Mean",Time 41.167 min,5.463 Pa
same,"Storage Modulus, Mean",Time 41.667 min,6.012 Pa
same,"Storage Modulus, Mean",Time 42.167 min,5.41 Pa
same,"Storage Modulus, Mean",Time 42.667 min,6.2431 Pa
same,"Storage Modulus, Mean",Time 43.667 min,6.226 Pa
same,"Storage Modulus, Mean",Time 44.167 min,5.9794 Pa
same,"Storage Modulus, Mean",Time 44.667 min,5.985 Pa
same,"Storage Modulus, Mean",Time 45.167 min,6.374 Pa
same,"Storage Modulus, Mean",Time 45.667 min,6.469 Pa
same,"Storage Modulus, Mean",Time 46.167 min,6.238 Pa
same,"Storage Modulus, Mean",Time 46.667 min,6.48 Pa
same,"Storage Modulus, Mean",Time 47.167 min,6.245 Pa
same,"Storage Modulus, Mean",Time 47.667 min,6.264 Pa
same,"Storage Modulus, Mean",Time 48.167 min,6.061 Pa
same,"Storage Modulus, Mean",Time 48.667 min,6.129 Pa
same,"Storage Modulus, Mean",Time 49.167 min,6.359 Pa
same,"Storage Modulus, Mean",Time 49.667 min,6.635 Pa
same,"Storage Modulus, Mean",Time 50.167 min,6.729 Pa
same,"Storage Modulus, Mean",Time 50.667 min,6.587 Pa
same,"Storage Modulus, Mean",Time 51.167 min,6.539 Pa
same,"Storage Modulus, Mean",Time 52.167 min,6.7034 Pa
same,"Storage Modulus, Mean",Time 52.667 min,6.721 Pa
same,"Storage Modulus, Mean",Time 53.167 min,6.093 Pa
same,"Storage Modulus, Mean",Time 53.667 min,6.47 Pa
same,"Storage Modulus, Mean",Time 54.167 min,6.616 Pa
same,"Storage Modulus, Mean",Time 54.667 min,6.384 Pa
same,"Storage Modulus, Mean",Time 55.167 min,6.562 Pa
same,"Storage Modulus, Mean",Time 55.667 min,6.487 Pa
same,"Storage Modulus, Mean",Time 56.167 min,6.459 Pa
same,"Storage Modulus, Mean",Time 56.667 min,6.476 Pa
same,"Storage Modulus, Mean",Time 57.167 min,6.693 Pa
same,"Storage Modulus, Mean",Time 57.667 min,6.141 Pa
same,"Storage Modulus, Mean",Time 58.167 min,6.373 Pa
same,"Storage Modulus, Mean",Time 58.67 min,6.398 Pa
same,"Storage Modulus, Mean",Time 59.17 min,6.773 Pa
same,"Storage Modulus, Mean",Time 59.67 min,6.841 Pa
same,"Storage Modulus, Mean",Time 60.17 min,6.995 Pa
same,"Storage Modulus, Mean",Time 60.67 min,6.318 Pa
same,"Storage Modulus, Mean",Time 61.17 min,6.74 Pa
same,"Storage Modulus, Mean",Time 61.67 min,6.619 Pa
same,"Storage Modulus, Mean",Time 61.83 min,1.042 Pa
same,"Storage Modulus, Mean",Time 62 min,0.9812 Pa
same,"Storage Modulus, Mean",Time 62.17 min,0.9146 Pa
same,"Storage Modulus, Mean",Time 62.33 min,0.8895 Pa
same,"Storage Modulus, Mean",Time 62.5 min,0.8547 Pa
same,"Storage Modulus, Mean",Time 62.67 min,0.8377 Pa
same,"Storage Modulus, Mean",Time 62.83 min,0.8254 Pa
same,"Storage Modulus, Mean",Time 63 min,0.8121 Pa
same,"Storage Modulus, Mean",Time 63.17 min,0.8015 Pa
same,"Storage Modulus, Mean",Time 63.33 min,0.7955 Pa
same,"Storage Modulus, Mean",Time 63.83 min,3.439 Pa
same,"Storage Modulus, Mean",Time 64.33 min,3.995 Pa
same,"Storage Modulus, Mean",Time 64.83 min,3.976 Pa
same,"Storage Modulus, Mean",Time 65.83 min,5.213 Pa
same,"Storage Modulus, Mean",Time 66.33 min,4.959 Pa
same,"Storage Modulus, Mean",Time 66.83 min,4.809 Pa
same,"Storage Modulus, Mean",Time 67.33 min,5.182 Pa
same,"Storage Modulus, Mean",Time 67.83 min,4.855 Pa
same,"Storage Modulus, Mean",Time 68.33 min,4.872 Pa
same,"Storage Modulus, Mean",Time 68.83 min,5.037 Pa
same,"Storage Modulus, Mean",Time 69.33 min,5.3734 Pa
same,"Storage Modulus, Mean",Time 69.83 min,5.191 Pa
same,"Storage Modulus, Mean",Time 70.33 min,4.815 Pa
same,"Storage Modulus, Mean",Time 70.83 min,5.539 Pa
same,"Storage Modulus, Mean",Time 71.33 min,5.01 Pa
same,"Storage Modulus, Mean",Time 71.83 min,5.823 Pa
